In PubChem BioAssay AID248 (DTP/NCI, 2004):
The list does not hold the whole screen: it gathers tests that were run many times, whatever their T/C, doses with no T/C, and many T/C values between a quarter and a half above the control. Other doses and runs of a compound stand elsewhere. T/C gives the treated animals as a percentage of the vehicle group. Some entries give survivors of the animals treated and no T/C: the source holds a T/C of zero for them, seemingly a mark for toxic or unscored doses. Some survivor counts are full or nearly so, which does not show that the dose was tolerated: the source hardly ever lists a survival T/C far under the control, and the zero likely stands for such cases as well. Counts of survivors are from the toxicity check (mostly the fifth day) where no day follows; animals may have died later. Schedules are NCI's codes, taken here to give the interval after Q, in days (D) or hours (H), and the number of doses after X. Where survival is the endpoint, this PubChem deposit counts one and a half times the control or more as active, and values a quarter to a half above the control carry no call in these data; other NCI protocols may use other cut-offs. Some doses were run more than once; their values stand side by side, smallest first.

System: L1210 leukemia ip in BDF1 mice, survival T/C
Test: NCI In Vivo Anticancer Drug Screen. Data for tumor model L1210 Leukemia (intraperitoneal) in B6D2F1 (BDF1) mice
Conditions: higher T/C = longer survival
[1] = T/C endpoint: mean survival time, dose: 400.0 mg/kg/injection, schedule: Q01DX001 (ip), vehicle: saline
[2] = T/C endpoint: mean survival time, dose: 200.0 mg/kg/injection, schedule: Q04DX003 (ip), vehicle: saline with Tween-80
[3] = T/C endpoint: mean survival time, dose: 400.0 mg/kg/injection, schedule: Q04DX003 (ip), vehicle: saline with Tween-80
[4] = T/C endpoint: mean survival time, dose: 100.0 mg/kg/injection, schedule: Q01DX009 (ip), vehicle: saline
[5] = T/C endpoint: mean survival time, dose: 100.0 mg/kg/injection, schedule: Q01DX009 (ip), vehicle: saline with Tween-80
[6] = T/C endpoint: mean survival time, dose: 100.0 mg/kg/injection, schedule: Q01DX001 (ip), vehicle: saline
[7] = T/C endpoint: mean survival time, dose: 200.0 mg/kg/injection, schedule: Q01DX001 (ip), vehicle: saline
[8] = T/C endpoint: mean survival time, dose: 50.0 mg/kg/injection, schedule: Q01DX009 (ip), vehicle: saline
[9] = T/C endpoint: mean survival time, dose: 50.0 mg/kg/injection, schedule: Q01DX001 (ip), vehicle: carboxymethylcellulose (CMC)
[10] = T/C endpoint: mean survival time, dose: 100.0 mg/kg/injection, schedule: Q01DX001 (ip), vehicle: carboxymethylcellulose (CMC)
[11] = T/C endpoint: mean survival time, dose: 200.0 mg/kg/injection, schedule: Q01DX001 (ip), vehicle: carboxymethylcellulose (CMC)
[12] = T/C endpoint: mean survival time, dose: 400.0 mg/kg/injection, schedule: Q01DX001 (ip), vehicle: carboxymethylcellulose (CMC)
[13] = T/C endpoint: mean survival time, dose: 400.0 mg/kg/injection, schedule: Q04DX003 (ip), vehicle: Klucel (hydroxypropylcellulose) (HPC)

With `Nc1ccc(O)c2ccccc12` the survivor count (T/C endpoint: mean survival time, dose: 12.5 mg/kg/injection, schedule: Q04DX003 (ip), vehicle: other) was 0 of 6, the survivor count (T/C endpoint: mean survival time, dose: 25.0 mg/kg/injection, schedule: Q04DX003 (ip), vehicle: other) was 0 of 6 and the survivor count (T/C endpoint: mean survival time, dose: 50.0 mg/kg/injection, schedule: Q04DX003 (ip), vehicle: other) was 0 of 6. The survivor count (T/C endpoint: mean survival time, dose: 100.0 mg/kg/injection, schedule: Q04DX003 (ip), vehicle: other) was 0 of 6 and the survivor count (T/C endpoint: mean survival time, dose: 200.0 mg/kg/injection, schedule: Q04DX003 (ip), vehicle: other) was 0 of 6.

With `Cc1c(CN(C)C)cccc1C(=O)Nc1ccccc1` the survivor count [1] was 2 of 4.

`Clc1nccnc1C(Cl)(Cl)Cl` was tested, and the survivor count (T/C endpoint: mean survival time, dose: 200.0 mg/kg/injection, schedule: Q01DX009 (ip), vehicle: other) was 2 of 3.

For `CCCCCc1cc(O)c(CCCC)c(O)c1`, the survivor count (T/C endpoint: mean survival time, dose: 100.0 mg/kg/injection, schedule: Q04DX002 (ip), vehicle: other) was 3 of 3, the survivor count (T/C endpoint: mean survival time, dose: 200.0 mg/kg/injection, schedule: Q04DX002 (ip), vehicle: other) was 3 of 3 and the survivor count (T/C endpoint: mean survival time, dose: 400.0 mg/kg/injection, schedule: Q04DX002 (ip), vehicle: other) was 0 of 3.

For `C1CCC(N2CC3CCCC2O3)CC1` (configuration not stated), the survivor count [1] was 0 of 4.

With `CC[N+]1(Cc2ccccc2)CC2(CCCCC2)ON2C1CC(C)C2(C)C` (configuration not stated) the survivor count [2] was 3 of 6 and the survivor count [3] was 0 of 6.

In the case of `NC(CNC(=O)OCc1ccccc1)=NCC(=O)O`, the survivor count [2] is reported as 3 of 6 and the survivor count [3] is reported as 1 of 6.

In the case of `O=C1NNC(=O)C2C3CCC(C3)C12` (configuration not stated), the survivor count [4] is reported as 2 of 6 and the survivor count (T/C endpoint: mean survival time, dose: 200.0 mg/kg/injection, schedule: Q01DX009 (ip), vehicle: saline) is reported as 1 of 6.

With `O=[N+]([O-])c1cccc2c1CCCC2` the survivor count [5] was 6 of 6.

With `CC(=O)OCC1OC(OC2CCCc3c(O)c4c(c(O)c32)C(=O)c2ccccc2C4=O)C(OC(C)=O)C(OC(C)=O)C1OC(C)=O` (configuration not stated) the survivor count (T/C endpoint: mean survival time, dose: 5.0 mg/kg/injection, schedule: Q01DX001 (ip), vehicle: saline) was 4 of 4, the survivor count (T/C endpoint: mean survival time, dose: 10.0 mg/kg/injection, schedule: Q01DX001 (ip), vehicle: saline) was 4 of 4 and the survivor count (T/C endpoint: mean survival time, dose: 20.0 mg/kg/injection, schedule: Q01DX001 (ip), vehicle: saline) was 4 of 4. For the same compound, the survivor count [6] was 4 of 4, the survivor count [7] was 4 of 4 and the survivor count [1] was 4 of 4.

With `CC(C)(C)OC(=O)CCN1CC1` the survivor count (T/C endpoint: mean survival time, dose: 300.0 mg/kg/injection, schedule: Q01DX001 (ip), vehicle: saline) was 0 of 6.

With `N/C(=N/O)c1cn(C2OC(CO)C(O)C2O)c2ncnc(NO)c12` (configuration not stated) the T/C (T/C endpoint: mean survival time, dose: 3.12 mg/kg/injection, schedule: Q01DX009 (ip), vehicle: saline) was 138 % of control, the T/C (T/C endpoint: mean survival time, dose: 6.25 mg/kg/injection, schedule: Q01DX009 (ip), vehicle: saline) was 130 % of control and the T/C (T/C endpoint: mean survival time, dose: 12.5 mg/kg/injection, schedule: Q01DX005 (ip), vehicle: saline) was 137 % of control. The survivor count (T/C endpoint: mean survival time, dose: 25.0 mg/kg/injection, schedule: Q01DX005 (ip), vehicle: saline) was 6 of 6, the survivor count (T/C endpoint: mean survival time, dose: 50.0 mg/kg/injection, schedule: Q01DX005 (ip), vehicle: saline) was 1 of 6 and the survivor count [8] was 5 of 6. The survivor count (T/C endpoint: mean survival time, dose: 100.0 mg/kg/injection, schedule: Q01DX005 (ip), vehicle: saline) was 0 of 6, the survivor count [4] was 0 of 6 and the survivor count (T/C endpoint: mean survival time, dose: 200.0 mg/kg/injection, schedule: Q01DX005 (ip), vehicle: saline) was 0 of 6.

`C/C=C/C[n+]1c(C)ccc2ccccc21` was tested, and the survivor count [6] was 2 of 6, the survivor count [7] was 0 of 6 and the survivor count [1] was 0 of 6.

With `c1ccc(-c2cc3ccccc3[nH]2)cc1` the survivor count (T/C endpoint: mean survival time, dose: 100.0 mg/kg/injection, schedule: Q01DX009 (ip), vehicle: Klucel (hydroxypropylcellulose) (HPC)) was 6 of 6 and the survivor count (T/C endpoint: mean survival time, dose: 400.0 mg/kg/injection, schedule: Q01DX009 (ip), vehicle: Klucel (hydroxypropylcellulose) (HPC)) was 3 of 6.

`COc1cc(C=Nc2ccc(C(=O)O)c(O)c2)ccc1N(CCCl)CCCl` was tested, and the survivor count (T/C endpoint: mean survival time, dose: 11.0 mg/kg/injection, schedule: Q01DX009 (ip), vehicle: Klucel (hydroxypropylcellulose) (HPC)) was 0 of 6, the T/C (T/C endpoint: mean survival time, dose: 12.5 mg/kg/injection, schedule: Q01DX001 (ip), vehicle: carboxymethylcellulose (CMC)) was 132 % of control and the T/C (T/C endpoint: mean survival time, dose: 16.0 mg/kg/injection, schedule: Q01DX001 (ip), vehicle: carboxymethylcellulose (CMC)) was 127 % of control. The survivor count (T/C endpoint: mean survival time, dose: 16.0 mg/kg/injection, schedule: Q01DX009 (ip), vehicle: Klucel (hydroxypropylcellulose) (HPC)) was 0 of 6, the T/C (T/C endpoint: mean survival time, dose: 25.0 mg/kg/injection, schedule: Q01DX001 (ip), vehicle: carboxymethylcellulose (CMC)) was 137 and 148 % of control and the survivor count (T/C endpoint: mean survival time, dose: 25.0 mg/kg/injection, schedule: Q01DX009 (ip), vehicle: Klucel (hydroxypropylcellulose) (HPC)) was 0 of 6. For the same compound, the T/C (T/C endpoint: mean survival time, dose: 37.5 mg/kg/injection, schedule: Q01DX001 (ip), vehicle: carboxymethylcellulose (CMC)) was 125 % of control, the survivor count (T/C endpoint: mean survival time, dose: 37.5 mg/kg/injection, schedule: Q01DX009 (ip), vehicle: Klucel (hydroxypropylcellulose) (HPC)) was 0 of 6 and the survivor count [9] was 0 of 4. The survivor count [10] was 0 of 4, the survivor count [11] was 0 of 4 and the survivor count [12] was 0 of 4.

In the case of `O=C(Cn1ccc(=O)[nH]c1=O)Nc1nccs1`, the survivor count [8] is reported as 0 of 6, the survivor count (T/C endpoint: mean survival time, dose: 50.0 mg/kg/injection, schedule: Q04DX003 (ip), vehicle: saline) is reported as 2 of 6 and the survivor count (T/C endpoint: mean survival time, dose: 100.0 mg/kg/injection, schedule: Q04DX003 (ip), vehicle: saline) is reported as 2 of 6. The survivor count (T/C endpoint: mean survival time, dose: 200.0 mg/kg/injection, schedule: Q04DX003 (ip), vehicle: saline) was 0 of 6 and the survivor count (T/C endpoint: mean survival time, dose: 400.0 mg/kg/injection, schedule: Q04DX003 (ip), vehicle: saline) was 0 of 6.

In the case of `CN(C)C=Nc1cc2c3c(c1)CCCN3CCC2`, the survivor count (T/C endpoint: mean survival time, dose: 50.0 mg/kg/injection, schedule: Q01DX001 (ip), vehicle: saline) is reported as 2 of 6, the survivor count [6] is reported as 0 of 6 and the survivor count [7] is reported as 1 of 6. For the same compound, the survivor count [1] was 1 of 6.

`CC1COCC(C)N1C1=C(Cl)C(=O)c2ccccc2C1=O` (configuration not stated) was tested, and the survivor count [9] was 2 of 4, the survivor count [10] was 0 of 4 and the survivor count [11] was 0 of 4. For the same compound, the survivor count [12] was 0 of 4.

With `CC1CC=CC(N2C(=O)c3ccccc3C2=O)C1` (configuration not stated) the survivor count [10] was 4 of 4.

For `COc1nc(N)c(C#N)cc1C#N`, the survivor count (T/C endpoint: mean survival time, dose: 200.0 mg/kg/injection, schedule: Q04DX003 (ip), vehicle: Klucel (hydroxypropylcellulose) (HPC)) was 0 of 6 and the survivor count [13] was 0 of 6.

For `CC(N)C12CC3CC(CC(C3)C1)C2` (configuration not stated), the survivor count (T/C endpoint: mean survival time, dose: 150.0 mg/kg/injection, schedule: Q01DX009 (ip), vehicle: saline) was 0 of 6 and the survivor count (T/C endpoint: mean survival time, dose: 300.0 mg/kg/injection, schedule: Q01DX009 (ip), vehicle: saline) was 0 of 6.

`Sc1ccc(Cl)cc1.[Pb]` was tested, and the survivor count (T/C endpoint: mean survival time, dose: 100.0 mg/kg/injection, schedule: Q01DX009 (ip), vehicle: gum acacia) was 3 of 3.

In the case of `C[N+]1(N[P+](=O)NN2CCCCC2)CCCCC1` (configuration not stated), the survivor count [12] is reported as 0 of 6.

With `CC1OC(OC2C(O)CC(OC3C(O)CC(OC4CCC5(C)C(CCC6C5CCC5(C)C(C7=CC(=O)OC7)CCC65O)C4)OC3C)OC2C)CC(O)C1O` (configuration not stated) the survivor count (T/C endpoint: mean survival time, dose: 64.0 mg/kg/injection, schedule: Q01DX015 (sc), vehicle: steroid suspending solution) was 6 of 6 and the survivor count (T/C endpoint: median survival time, dose: 16.0 mg/kg/injection, schedule: Q04DX003 (iv), vehicle: water) was 7 of 8.

`CN1CN(c2ccccc2)CSC1=S` was tested, and the survivor count [13] was 5 of 6.

`CCOC(=O)C(C(=O)OCC)C(C)(C)Cc1ccccc1` was tested, and the survivor count (T/C endpoint: mean survival time, dose: 100.0 mg/kg/injection, schedule: Q04DX003 (ip), vehicle: Klucel (hydroxypropylcellulose) (HPC)) was 0 of 6.

With `CCCCSP(Cc1ccccc1)SCCCC` the survivor count [13] was 2 of 6.

With `CC(=O)Nc1ccc(/C=N/NC(=O)c2ccc(C)cc2)cc1` the survivor count [5] was 3 of 3.
